According to paper PMC6509187:
No constants are given. Whether binding was seen depends on the method and setting. Binding seen in cells or lysates may run through a third protein. Some results given as binding are weak or reduced against the parent protein; the word gives no strength. For some assays here: Tags and fused reporters may be left off the sequences shown. Values belong to the substance of their own block, whether it stands above or below them.

Sequences of proteins named here, by UniProt entry; tags and fusion partners are left off. Residues count along the entry.
UniProt Q8VDD5: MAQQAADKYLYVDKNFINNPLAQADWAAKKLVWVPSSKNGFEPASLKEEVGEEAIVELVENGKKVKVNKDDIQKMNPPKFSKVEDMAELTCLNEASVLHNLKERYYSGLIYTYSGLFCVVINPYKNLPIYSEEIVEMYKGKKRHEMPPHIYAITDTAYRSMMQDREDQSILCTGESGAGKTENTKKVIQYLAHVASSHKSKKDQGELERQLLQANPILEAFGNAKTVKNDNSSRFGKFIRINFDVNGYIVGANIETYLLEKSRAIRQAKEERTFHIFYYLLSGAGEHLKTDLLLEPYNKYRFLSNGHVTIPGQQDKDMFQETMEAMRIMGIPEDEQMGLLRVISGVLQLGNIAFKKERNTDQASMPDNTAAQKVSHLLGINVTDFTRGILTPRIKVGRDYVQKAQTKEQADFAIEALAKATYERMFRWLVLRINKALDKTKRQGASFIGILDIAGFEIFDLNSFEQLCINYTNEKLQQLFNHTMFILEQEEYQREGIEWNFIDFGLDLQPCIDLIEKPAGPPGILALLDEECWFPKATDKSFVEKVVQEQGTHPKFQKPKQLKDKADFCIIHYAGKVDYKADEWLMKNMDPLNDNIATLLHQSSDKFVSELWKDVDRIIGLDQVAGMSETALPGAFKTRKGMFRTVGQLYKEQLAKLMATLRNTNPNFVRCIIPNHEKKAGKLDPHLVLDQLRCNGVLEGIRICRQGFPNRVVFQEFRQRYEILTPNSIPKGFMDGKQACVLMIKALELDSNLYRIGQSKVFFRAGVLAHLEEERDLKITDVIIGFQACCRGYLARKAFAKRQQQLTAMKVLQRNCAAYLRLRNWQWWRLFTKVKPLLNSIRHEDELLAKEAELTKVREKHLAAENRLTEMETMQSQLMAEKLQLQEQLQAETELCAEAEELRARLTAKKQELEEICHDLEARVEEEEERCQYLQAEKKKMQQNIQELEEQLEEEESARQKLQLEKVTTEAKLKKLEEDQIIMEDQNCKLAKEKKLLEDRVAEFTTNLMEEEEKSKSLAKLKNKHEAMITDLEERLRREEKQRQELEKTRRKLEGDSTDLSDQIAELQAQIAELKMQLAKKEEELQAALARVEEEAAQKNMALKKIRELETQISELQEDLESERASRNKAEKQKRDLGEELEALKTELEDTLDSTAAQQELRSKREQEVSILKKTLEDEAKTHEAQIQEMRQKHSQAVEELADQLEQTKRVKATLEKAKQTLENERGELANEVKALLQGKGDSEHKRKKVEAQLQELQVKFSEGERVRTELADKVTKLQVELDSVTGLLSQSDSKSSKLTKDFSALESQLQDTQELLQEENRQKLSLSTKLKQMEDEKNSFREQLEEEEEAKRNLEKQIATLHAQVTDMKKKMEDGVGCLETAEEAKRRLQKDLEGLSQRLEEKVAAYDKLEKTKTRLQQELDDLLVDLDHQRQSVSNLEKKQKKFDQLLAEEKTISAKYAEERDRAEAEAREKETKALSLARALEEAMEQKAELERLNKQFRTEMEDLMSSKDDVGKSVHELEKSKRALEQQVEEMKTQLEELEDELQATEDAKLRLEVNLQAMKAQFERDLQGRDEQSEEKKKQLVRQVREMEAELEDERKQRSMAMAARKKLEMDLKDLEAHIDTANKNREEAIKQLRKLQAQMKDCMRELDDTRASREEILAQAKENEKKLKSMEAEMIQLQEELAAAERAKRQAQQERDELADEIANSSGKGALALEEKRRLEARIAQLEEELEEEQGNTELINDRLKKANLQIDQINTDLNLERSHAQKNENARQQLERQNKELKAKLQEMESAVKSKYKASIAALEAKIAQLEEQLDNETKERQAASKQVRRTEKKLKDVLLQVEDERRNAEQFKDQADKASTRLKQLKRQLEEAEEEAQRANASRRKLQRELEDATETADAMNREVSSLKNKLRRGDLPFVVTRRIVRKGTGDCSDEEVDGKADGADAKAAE
UniProt O54885, residues 22-114: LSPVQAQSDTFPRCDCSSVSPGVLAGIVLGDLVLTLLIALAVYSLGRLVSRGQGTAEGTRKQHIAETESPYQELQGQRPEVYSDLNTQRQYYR
UniProt Q00655: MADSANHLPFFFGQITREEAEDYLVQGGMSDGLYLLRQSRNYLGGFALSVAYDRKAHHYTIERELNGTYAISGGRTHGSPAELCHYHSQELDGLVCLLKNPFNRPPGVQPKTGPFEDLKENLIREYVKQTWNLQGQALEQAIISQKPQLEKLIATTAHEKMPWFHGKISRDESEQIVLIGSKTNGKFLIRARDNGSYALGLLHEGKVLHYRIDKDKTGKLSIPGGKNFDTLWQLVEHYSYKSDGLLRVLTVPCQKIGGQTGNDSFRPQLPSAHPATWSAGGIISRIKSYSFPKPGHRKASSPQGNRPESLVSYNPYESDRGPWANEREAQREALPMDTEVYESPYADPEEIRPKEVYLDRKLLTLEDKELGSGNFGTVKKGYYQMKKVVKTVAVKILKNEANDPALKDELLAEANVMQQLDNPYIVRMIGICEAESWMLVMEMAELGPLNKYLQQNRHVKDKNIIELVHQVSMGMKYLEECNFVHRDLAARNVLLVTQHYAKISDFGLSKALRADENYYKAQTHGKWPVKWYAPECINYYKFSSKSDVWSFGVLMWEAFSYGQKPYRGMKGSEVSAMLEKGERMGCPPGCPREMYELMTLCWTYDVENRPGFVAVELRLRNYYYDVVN

Tests used:
[1] = molecular target: NMHC-IIA (endogenous in RAW 264.7 cells) (mouse (endogenous in RAW 264.7)) (UniProt Q8VDD5); assay: co-IP
[2] = molecular target: T1, 3×Flag-DAP12 (in CRL-2843-CD163 cells) (pig) (UniProt Q9TU45); assay: co-IP; CRL-2843-CD163 cells transfected with 3×Flag-DAP12 or 3×Flag-DAP12 mutants for 48 h, infected with PRRSV (MOI = 5) for 1 h; Flag-tagged proteins immunoprecipitated; immunoblot
T1 sequence: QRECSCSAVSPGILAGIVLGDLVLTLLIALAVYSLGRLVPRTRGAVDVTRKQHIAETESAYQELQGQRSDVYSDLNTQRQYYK

[3] = molecular target: T1, 3×Flag-DAP12 (in CRL-2843-CD163 cells) (pig); assay: co-IP; CRL-2843-CD163 cells transfected with Syk-myc-his and 3×Flag-DAP12, mock infected or infected with PRRSV (MOI = 1) for 1 h; IP with anti-Flag MAb; NP-40 lysis buffer
[4] = molecular target: T2, 3×Flag-DAP12 (in HEK-293T cells) (pig) (UniProt Q9TU45); assay: co-IP; HEK-293T cells cotransfected with 3×Flag-DAP12 and Syk-myc-his for 48 h; IP with anti-Myc or anti-Flag MAb; NP-40 lysis buffer
T2 sequence: T1 sequence

[5] = molecular target: T3, DNAX activation protein of 12 kDa (DAP12) (pig (endogenous in PAMs)) (UniProt Q9TU45); assay: co-IP
T3 sequence: T1 sequence

Substance: DAP12 (endogenous in RAW 264.7 cells) (from UniProt O54885 22-114)
- binding [1]: binds

Substance: Syk-myc-his (in HEK-293T cells) (from UniProt Q00655 1-628)
- binding [4]: binds

Substance: spleen tyrosine kinase (Syk) (from UniProt Q00655 1-628)
- binding [5]: binds

The next lines start with the values.

- binding [2]: binds
Substance: Syk (in CRL-2843-CD163 cells transfected with DAP12 constructs only) (from UniProt Q00655 1-628)

- binding [3]: binds
Substance: Syk-myc-his (in CRL-2843-CD163 cells) (from UniProt Q00655 1-628)
